These are yes or no findings as the source states them, for the method shown. Binding seen in cells or lysates may run through a third protein. Some entries that bind do so weakly or less than the wild type. Each block holds one substance with its values, some of them ahead of it.
Experiments:
[1] = biological target: endogenous UBE2T of MHCC-97L cells (human (endogenous in MHCC-97L)) (UniProt Q9NPD8); experiment: co-IP; reciprocal co-immunoprecipitation of endogenous UBE2T and Mule in MHCC-97L cells
[2] = biological target: SFB-UBE2T (ubiquitin-conjugating enzyme E2 T), stable clone in HEK293T (UniProt Q9NPD8); experiment: co-IP; immunoprecipitation in HEK293T cells (Supplementary Fig. S6); details not shown
[3] = biological target: SFB-UBE2T expressed in Huh7 cells (UniProt Q9NPD8); experiment: co-IP; SFB-UBE2T pulled down from Huh7 cells, Mule detected

By UniProt entry, the sequences of proteins in these tests, tags left out.
UniProt Q9NPD8: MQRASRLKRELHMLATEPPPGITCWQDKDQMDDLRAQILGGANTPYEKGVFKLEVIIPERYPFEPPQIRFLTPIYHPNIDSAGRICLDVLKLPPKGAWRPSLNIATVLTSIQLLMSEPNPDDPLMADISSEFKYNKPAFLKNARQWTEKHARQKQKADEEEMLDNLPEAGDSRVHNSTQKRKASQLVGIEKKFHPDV
UniProt Q7Z6Z7: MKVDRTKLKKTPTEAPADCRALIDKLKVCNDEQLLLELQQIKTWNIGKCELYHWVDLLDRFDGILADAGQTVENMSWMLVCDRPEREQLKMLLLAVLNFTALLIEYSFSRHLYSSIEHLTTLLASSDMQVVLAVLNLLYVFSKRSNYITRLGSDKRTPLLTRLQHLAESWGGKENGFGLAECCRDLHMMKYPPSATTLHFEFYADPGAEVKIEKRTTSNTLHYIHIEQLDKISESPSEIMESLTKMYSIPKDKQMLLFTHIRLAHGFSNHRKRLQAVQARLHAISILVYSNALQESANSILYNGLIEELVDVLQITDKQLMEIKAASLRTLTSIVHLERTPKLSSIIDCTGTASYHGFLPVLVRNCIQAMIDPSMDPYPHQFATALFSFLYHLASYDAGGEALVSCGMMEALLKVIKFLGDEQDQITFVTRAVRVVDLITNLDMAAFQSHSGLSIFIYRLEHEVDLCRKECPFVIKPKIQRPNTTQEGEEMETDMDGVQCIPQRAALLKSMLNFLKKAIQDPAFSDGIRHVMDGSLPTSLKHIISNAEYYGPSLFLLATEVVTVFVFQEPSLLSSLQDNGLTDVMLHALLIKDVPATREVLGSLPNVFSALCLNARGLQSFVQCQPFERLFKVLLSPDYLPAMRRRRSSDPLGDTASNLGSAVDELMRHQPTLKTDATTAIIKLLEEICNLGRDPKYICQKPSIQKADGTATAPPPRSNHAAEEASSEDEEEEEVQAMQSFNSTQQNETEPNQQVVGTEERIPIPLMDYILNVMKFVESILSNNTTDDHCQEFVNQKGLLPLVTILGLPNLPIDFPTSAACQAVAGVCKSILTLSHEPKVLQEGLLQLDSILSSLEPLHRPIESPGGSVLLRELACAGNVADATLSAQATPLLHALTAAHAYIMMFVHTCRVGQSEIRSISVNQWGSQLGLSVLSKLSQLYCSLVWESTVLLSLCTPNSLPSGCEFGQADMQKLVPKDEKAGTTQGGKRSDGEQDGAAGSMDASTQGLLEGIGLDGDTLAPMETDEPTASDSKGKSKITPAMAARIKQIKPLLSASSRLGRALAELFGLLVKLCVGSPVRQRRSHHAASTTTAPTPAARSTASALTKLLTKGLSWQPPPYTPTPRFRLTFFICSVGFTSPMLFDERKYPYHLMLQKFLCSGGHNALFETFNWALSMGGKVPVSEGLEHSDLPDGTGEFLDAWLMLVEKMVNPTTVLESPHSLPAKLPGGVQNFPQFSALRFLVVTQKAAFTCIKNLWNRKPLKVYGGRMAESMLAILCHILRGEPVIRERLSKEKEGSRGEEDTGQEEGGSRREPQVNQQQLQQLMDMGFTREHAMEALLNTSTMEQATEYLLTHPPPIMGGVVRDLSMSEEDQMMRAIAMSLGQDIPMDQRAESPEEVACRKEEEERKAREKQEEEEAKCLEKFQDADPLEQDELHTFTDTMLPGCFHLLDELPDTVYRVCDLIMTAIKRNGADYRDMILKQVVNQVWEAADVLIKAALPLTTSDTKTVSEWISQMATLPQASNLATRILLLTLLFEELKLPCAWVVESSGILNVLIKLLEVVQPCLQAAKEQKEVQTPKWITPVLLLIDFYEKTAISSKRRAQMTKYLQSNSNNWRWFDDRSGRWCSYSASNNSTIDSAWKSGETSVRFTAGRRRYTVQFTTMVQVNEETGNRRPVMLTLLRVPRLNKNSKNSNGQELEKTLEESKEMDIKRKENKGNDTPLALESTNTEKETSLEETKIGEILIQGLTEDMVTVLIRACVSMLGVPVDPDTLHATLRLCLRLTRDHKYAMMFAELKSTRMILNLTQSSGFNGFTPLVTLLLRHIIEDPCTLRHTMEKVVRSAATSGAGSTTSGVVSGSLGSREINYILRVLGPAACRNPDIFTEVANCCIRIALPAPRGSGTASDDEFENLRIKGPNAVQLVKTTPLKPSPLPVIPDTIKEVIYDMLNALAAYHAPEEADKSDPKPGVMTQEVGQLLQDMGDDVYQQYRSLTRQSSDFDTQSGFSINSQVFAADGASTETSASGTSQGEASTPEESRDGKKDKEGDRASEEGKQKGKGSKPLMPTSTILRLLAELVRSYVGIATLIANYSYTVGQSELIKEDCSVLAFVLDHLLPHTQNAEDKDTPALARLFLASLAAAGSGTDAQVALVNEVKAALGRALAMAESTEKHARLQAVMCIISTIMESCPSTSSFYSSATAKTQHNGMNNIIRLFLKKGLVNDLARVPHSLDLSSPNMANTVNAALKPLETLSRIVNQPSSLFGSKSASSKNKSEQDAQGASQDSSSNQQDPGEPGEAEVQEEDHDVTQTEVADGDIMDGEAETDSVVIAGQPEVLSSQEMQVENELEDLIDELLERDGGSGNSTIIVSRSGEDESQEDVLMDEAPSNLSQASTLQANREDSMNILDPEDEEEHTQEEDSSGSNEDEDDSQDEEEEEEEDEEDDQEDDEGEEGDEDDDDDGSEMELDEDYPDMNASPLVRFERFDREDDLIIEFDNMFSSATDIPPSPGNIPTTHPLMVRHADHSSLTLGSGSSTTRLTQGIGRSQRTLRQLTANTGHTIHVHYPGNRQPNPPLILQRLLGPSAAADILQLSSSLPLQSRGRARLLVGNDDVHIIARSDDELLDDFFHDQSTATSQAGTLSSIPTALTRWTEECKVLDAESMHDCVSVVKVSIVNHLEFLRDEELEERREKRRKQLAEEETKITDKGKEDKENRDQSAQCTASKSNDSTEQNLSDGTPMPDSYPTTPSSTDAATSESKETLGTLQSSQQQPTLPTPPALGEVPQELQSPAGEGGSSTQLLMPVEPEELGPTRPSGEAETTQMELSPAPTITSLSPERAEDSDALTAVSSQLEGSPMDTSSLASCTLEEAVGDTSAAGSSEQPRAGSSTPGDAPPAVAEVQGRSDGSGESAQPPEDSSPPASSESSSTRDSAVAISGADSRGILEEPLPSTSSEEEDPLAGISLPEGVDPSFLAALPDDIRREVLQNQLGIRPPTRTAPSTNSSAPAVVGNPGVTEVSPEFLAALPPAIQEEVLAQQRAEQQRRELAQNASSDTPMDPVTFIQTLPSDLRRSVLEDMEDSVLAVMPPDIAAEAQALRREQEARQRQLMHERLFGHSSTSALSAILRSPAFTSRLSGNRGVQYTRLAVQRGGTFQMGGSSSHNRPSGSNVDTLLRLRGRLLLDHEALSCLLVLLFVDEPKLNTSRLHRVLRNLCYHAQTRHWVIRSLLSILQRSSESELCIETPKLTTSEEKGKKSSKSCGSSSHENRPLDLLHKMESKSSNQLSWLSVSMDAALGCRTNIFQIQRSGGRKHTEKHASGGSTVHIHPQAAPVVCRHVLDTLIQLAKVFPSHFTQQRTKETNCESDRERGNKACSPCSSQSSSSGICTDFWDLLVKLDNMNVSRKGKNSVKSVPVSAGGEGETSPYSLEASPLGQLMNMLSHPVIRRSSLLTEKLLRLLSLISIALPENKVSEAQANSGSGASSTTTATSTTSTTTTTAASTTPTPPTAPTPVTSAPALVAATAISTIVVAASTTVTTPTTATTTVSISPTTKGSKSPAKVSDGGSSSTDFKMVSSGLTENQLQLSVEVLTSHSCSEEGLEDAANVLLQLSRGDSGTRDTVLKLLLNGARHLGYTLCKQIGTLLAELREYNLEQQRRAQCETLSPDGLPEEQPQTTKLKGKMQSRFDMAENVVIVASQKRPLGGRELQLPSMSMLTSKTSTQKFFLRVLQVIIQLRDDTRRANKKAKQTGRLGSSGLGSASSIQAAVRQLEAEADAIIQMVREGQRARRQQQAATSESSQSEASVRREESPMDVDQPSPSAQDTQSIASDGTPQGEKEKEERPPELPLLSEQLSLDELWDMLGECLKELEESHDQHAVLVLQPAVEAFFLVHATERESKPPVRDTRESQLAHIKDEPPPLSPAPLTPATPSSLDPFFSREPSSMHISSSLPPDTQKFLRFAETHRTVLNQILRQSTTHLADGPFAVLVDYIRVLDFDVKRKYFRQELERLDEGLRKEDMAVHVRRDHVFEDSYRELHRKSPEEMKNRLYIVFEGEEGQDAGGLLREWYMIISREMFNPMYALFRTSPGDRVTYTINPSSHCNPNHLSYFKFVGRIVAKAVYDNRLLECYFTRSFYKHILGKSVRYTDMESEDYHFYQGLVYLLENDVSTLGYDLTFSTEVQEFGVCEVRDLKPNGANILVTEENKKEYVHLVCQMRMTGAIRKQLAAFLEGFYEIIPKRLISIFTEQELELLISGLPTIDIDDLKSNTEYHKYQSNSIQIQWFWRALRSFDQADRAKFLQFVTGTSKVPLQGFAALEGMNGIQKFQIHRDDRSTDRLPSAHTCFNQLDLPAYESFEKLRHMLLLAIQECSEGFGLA

- binding [1]: binds
Substance: endogenous Mule of MHCC-97L cells (from UniProt Q7Z6Z7 1-4374) (enzyme)

- binding [2]: binds
Substance: Mcl-1 ubiquitin ligase E3 (Mule) of HEK293T cells (from UniProt Q7Z6Z7 1-4374) (enzyme)

- binding [3]: binds
Substance: Mule of Huh7 cells (from UniProt Q7Z6Z7 1-4374) (enzyme)
